In the supplement of paper PMC12889115:
The list shows a part of the results. These are raw signals, not scaled to a control.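 In the initial screen, polymyxin B was used at a concentration that permeabilizes Salmonella's outer membrane but not its inner membrane. Maximum growth was set by DMSO wells with or without polymyxin B. Since plates varied, data were ranked per plate, and compounds giving the lowest OD600 advanced as hits.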

System: Salmonella enterica serovar Typhimurium SL1344
Assay: bacterial growth OD600 after 18 h with compound and polymyxin B; higher = more bacterial growth (less inhibition)
Conditions: 50 µM, Mueller-Hinton broth

SMILES | bacterial growth OD600 (polymyxin B 0.75 µg/mL) | bacterial growth OD600 (polymyxin B 1 µg/mL)
Cc1nc(C)c(CN2CCC(C3CCN(CC(C)(C)C)C3)CC2)nc1C (stereo unspecified) | 0.932 | 
COc1cc(NC(=O)CCC2CCCN(C(=O)c3ccoc3)C2)cc(OC)c1 (stereo unspecified) |  | 0.877
CS(=O)(=O)N1CCC(C2CCN(Cc3ccc(Cl)cc3)C2)CC1 (stereo unspecified) | 0.752 | 
Cc1ccc(C(=O)Nc2cnn(-c3ccc(C(=O)N4CCC(c5ccc(F)cc5)C4)cc3)c2)c(C)c1 (stereo unspecified) | 0.783 | 
COc1ccc(-c2nn(-c3ccccc3C)cc2CN2CCC(OC)CC2)cc1F |  | 0.735
COc1cccc(-c2cnc(-c3ccncc3)nc2C2CCN(Cc3cn(C)c4ccccc34)CC2)c1 | 0.023 | 
Cc1cc(C(=O)N2CCCC(CNS(=O)(=O)c3cccs3)C2)c2ccc(F)cc2n1 (stereo unspecified) |  | 0.862
COCC1CCCN(c2nc3nonc3nc2NCc2cccs2)C1 (stereo unspecified) |  | 0.875
CC#CCN(Cc1ccco1)C(=O)c1cn(CC2COc3ccccc3O2)nn1 (stereo unspecified) |  | 0.7
COc1ccc(-c2nc(CN3CCC(Oc4ccccc4F)CC3)c(C)o2)cc1OC |  | 0.745
Cc1cc(C)n(CCCN2CC[C@@H](N3CCN(c4ccccn4)CC3)[C@H](O)C2)n1 | 0.836 | 
CSCCC(=O)N1CCCC(Nc2ccc(C(C)C)cc2)C1 (stereo unspecified) |  | 0.92
COc1cccc(-n2cc(CN(C)C(=O)c3cn(Cc4ccccc4C)nn3)cn2)c1 |  | 0.589
CCc1ccc(CN(C)CC2CCCN(CCc3ccc(OC)cc3)C2)o1 (stereo unspecified) |  | 0.964
COc1ccc(CN2CCN(Cc3cnc(-c4cccc(C)c4)nc3)CC2CCO)cc1C (stereo unspecified) |  | 0.909
COc1ccc(CN2CCOc3ccc(C(O)Cc4ccccc4)cc3C2)c(Cl)c1OC (stereo unspecified) | 0.669 | 

Two of the compounds above, as comma-separated lines.
SMILES,bacterial growth OD600 (polymyxin B 0.75 µg/mL),bacterial growth OD600 (polymyxin B 1 µg/mL)
Cc1cc(C(=O)N2CCCC(CNS(=O)(=O)c3cccs3)C2)c2ccc(F)cc2n1 (stereo unspecified),,0.862
COc1cccc(-n2cc(CN(C)C(=O)c3cn(Cc4ccccc4C)nn3)cn2)c1,,0.589

Next structures.

SMILES | bacterial growth OD600 (polymyxin B 0.75 µg/mL) | bacterial growth OD600 (polymyxin B 1 µg/mL)
COc1ccc(C(=O)NCC2CCCCC2)cc1OC1CCN(C(C)=O)CC1 |  | 1.06
CC1=C(C(=O)N2CCCC(C(=O)c3ccc(-c4ccccc4)cc3)C2)OCCO1 (stereo unspecified) |  | 0.004
O=C(Nc1ccc(N2CCC(NC(CCn3ccnc3)c3ccccc3)CC2)cc1)c1ccccc1F (stereo unspecified) | 0.832 | 
COc1cc(CN2CCOc3ccc(C(O)CCc4ccccc4)cc3C2)cc(OC)c1 (stereo unspecified) | -0.002 | 
CC(=O)NCCC1CCN(c2nc3nonc3nc2N2CCSCC2)CC1 | 0.784 | 
O=C(CN1CCCCC1)N1CCCC(N2CCN(c3cccc(Cl)c3)CC2)C1 (stereo unspecified) |  | 0.884
Cn1nc(C(=O)N2CCc3onc(-c4ccccc4F)c3C2)ccc1=O | 0.752 | 
O=C(c1cn(CCc2ccccc2)nn1)N1CCC(OCc2ccccc2)CC1 |  | 0.944
CC(=O)N1CCC[C@H]1C(=O)NCc1cccnc1Oc1ccccc1C | 0.954 | 
CN(C)CCC1CN(Cc2nc3c(s2)CCCC3)CCO1 (stereo unspecified) | 0.862 | 
O=C(NC1CCCN(CCc2ccccc2)C1)c1ccccc1C(F)(F)F (stereo unspecified) | 0.981 | 
COCCNC(=O)c1cccc(OC2CCN(Cc3ccnc4ccccc34)CC2)c1 |  | 0.941
CCCS(=O)(=O)NCc1cc(NS(=O)(=O)c2cccc(C(F)(F)F)c2)cc(C(=O)OC)c1 | 0.554 | 
Cc1noc(C)c1C(=O)NC1CCCc2nc(-c3ccccc3)ncc21 (stereo unspecified) |  | 1.03
COc1ccc(CCN2CCCC(CN(C)Cc3cnn(C(C)C)c3)C2)cc1 (stereo unspecified) |  | 0.841
